Patent publication US20240034779A1

Target: cynomolgus complement factor D (CFD) (cynomolgus monkey)
Test: SPR (Biacore), pH 7.4 and pH 5.5

binding: binds
B1: anti-CFD antibody 2 (clone 169C8) (antibody, human IgG1, lambda, L234A L235A, V domains shown)
VH: EVQVQESGPGLVKPSQTLSLTCTVSGGSITTSYYAWSWIRQPPGKGLEWMGDIANDGSTYYSPSLESRTSISRDTSKNQFSLQLSSVTPEDTAVYYCARLRSLYTDYDPHYYDYWGQGTQVTVSS
VL: SSALTQPSALSVTKGQTAKITCQGDLLPRHYAHWYQQKTGQAPKLIVYDDDIRPSGIPERFSGSNSGGVATLTIAGAQAEDEADYHCQSADSNDDAVFGGGTHLTVLS

Results are given in words; binding and its absence hold for the method and conditions named. Binding calls can cover weak binding; strength is not graded here.
